Experimental data taken from article PMC9706435.
No constants are given. Whether binding was seen depends on the method and setting. In cells and extracts the contact can be indirect. Some results given as binding are weak or reduced against the parent protein; the word gives no strength. For some assays here: Tags and fused reporters may be left off the sequences shown.

Sequences of proteins named here, by UniProt entry; tags and fusion partners are left off.
UniProt Q9SR02: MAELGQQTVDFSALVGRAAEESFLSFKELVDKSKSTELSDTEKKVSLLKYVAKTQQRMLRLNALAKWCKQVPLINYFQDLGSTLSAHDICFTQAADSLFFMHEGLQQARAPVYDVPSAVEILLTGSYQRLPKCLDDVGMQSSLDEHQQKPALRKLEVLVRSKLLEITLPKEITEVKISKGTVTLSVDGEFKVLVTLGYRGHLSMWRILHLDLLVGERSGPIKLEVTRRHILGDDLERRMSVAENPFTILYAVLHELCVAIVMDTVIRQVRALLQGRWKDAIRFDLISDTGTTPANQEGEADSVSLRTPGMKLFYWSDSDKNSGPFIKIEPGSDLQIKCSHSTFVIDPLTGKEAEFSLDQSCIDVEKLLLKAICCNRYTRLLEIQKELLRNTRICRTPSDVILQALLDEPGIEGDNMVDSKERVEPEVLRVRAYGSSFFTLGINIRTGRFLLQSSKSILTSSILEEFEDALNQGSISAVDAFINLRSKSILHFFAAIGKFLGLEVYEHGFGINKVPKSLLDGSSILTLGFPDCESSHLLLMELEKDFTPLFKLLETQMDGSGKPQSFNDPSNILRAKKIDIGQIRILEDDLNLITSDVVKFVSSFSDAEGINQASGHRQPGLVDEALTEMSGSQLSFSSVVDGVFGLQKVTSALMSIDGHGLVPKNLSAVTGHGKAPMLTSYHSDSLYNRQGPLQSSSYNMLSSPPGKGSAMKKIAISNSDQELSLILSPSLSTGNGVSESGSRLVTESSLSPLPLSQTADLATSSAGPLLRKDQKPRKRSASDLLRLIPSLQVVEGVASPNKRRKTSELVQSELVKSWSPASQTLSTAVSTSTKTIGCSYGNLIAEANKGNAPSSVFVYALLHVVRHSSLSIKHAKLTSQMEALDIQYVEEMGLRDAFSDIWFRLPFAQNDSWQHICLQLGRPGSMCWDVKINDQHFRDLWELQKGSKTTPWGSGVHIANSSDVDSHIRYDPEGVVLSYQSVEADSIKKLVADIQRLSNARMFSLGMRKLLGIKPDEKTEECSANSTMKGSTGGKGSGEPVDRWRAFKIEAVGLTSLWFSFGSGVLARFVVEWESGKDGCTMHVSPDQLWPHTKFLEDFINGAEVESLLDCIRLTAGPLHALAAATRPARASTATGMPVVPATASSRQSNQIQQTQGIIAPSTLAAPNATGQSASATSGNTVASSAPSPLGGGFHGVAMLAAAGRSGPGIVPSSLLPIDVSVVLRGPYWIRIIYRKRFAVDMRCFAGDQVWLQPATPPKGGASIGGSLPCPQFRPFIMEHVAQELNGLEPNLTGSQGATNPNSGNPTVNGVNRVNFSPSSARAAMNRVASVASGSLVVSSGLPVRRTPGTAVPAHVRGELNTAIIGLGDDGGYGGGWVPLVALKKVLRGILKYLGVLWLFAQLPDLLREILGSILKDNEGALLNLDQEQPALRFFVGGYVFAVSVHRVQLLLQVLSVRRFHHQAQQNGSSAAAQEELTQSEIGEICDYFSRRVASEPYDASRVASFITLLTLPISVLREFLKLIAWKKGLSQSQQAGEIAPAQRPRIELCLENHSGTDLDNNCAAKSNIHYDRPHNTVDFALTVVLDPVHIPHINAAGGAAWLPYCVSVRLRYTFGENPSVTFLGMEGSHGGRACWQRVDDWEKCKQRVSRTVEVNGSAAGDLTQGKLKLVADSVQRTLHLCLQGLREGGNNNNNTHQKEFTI

Key:
[1] = target: T1, PIF4-NmVen210 (Arabidopsis thaliana) (UniProt Q8W2F3); experiment: split reporter; BiFC with pDOE-01 (NmVenus210 / cVenus210) co-expressed with CFP in N. benthamiana by agroinfiltration (OD 0.1); confocal imaging 40-70 h after infiltration
T1 sequence: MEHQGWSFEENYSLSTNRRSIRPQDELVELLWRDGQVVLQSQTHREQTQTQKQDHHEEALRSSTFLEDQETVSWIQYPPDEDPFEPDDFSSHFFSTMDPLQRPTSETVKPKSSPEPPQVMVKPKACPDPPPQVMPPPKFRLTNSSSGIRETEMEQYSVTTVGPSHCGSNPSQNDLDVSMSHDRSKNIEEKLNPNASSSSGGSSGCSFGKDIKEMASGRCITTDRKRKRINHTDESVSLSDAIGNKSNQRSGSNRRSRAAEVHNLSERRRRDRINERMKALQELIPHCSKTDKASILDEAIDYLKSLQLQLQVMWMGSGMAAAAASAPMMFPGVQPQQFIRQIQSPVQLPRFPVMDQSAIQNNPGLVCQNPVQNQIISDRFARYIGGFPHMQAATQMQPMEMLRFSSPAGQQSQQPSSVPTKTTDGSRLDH

[2] = target: T2, GST-PIF4 (PHYTOCHROME-… FACTOR 4) (Arabidopsis thaliana) (UniProt Q8W2F3); experiment: pull-down; GST-PIF4 or GST-HMR bait immobilised on glutathione Sepharose 4B beads, incubated with in vitro translated HA-MED14 at 4°C for 2 h; washed four times with E buffer (50 mM Tris-HCl pH 7.5, 100 mM NaCl, 1 mM EDTA, 1 mM EGTA, 1% DMSO, 2 mM DTT, 0.1% Nonidet P-40); anti-HA immunoblot; only the target purified
T2 sequence: T1 sequence

Substance | binding [1] | binding [2]
MED14-cVen210 (from UniProt Q9SR02 1-1703) | binds | –
HA-MED14 (from UniProt Q9SR02 1-1703) | – | binds
